± gives the standard deviation of the averaged measurements. Only a part is listed here, and it is no random draw.
Compound: Nc1ncnc2c1ncn2[C@@H]1O[C@H](COP(=O)(O)OP(=O)(O)OP(=O)(O)O)[C@@H](O)[C@H]1O [adenosine triphosphate]
Assay: NP40-soluble protein abundance relative to vehicle (solubility fold change) (ratio); higher = more soluble protein in presence of ATP
Method in brief: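 Jurkat crude lysate prepared with a Dounce homogeniser was treated at eight concentrations spanning 0.1 to 10 mM, 10 min at room temperature then 3 min at 37 °C. Solubilisation with 0.8% NP40 and benzonase and ultracentrifugation preceded TMT labelling of the supernatant for LC-MS/MS. Fold change against the detergent-processed vehicle was determined per replicate from vsn-normalised intensities, across three independent experiments.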

Chains of the proteins cited; added tags and fusions are not shown. Lines headed by an entry give the natural chain unless they say otherwise; changes in a name come on top.
UniProt Q15185: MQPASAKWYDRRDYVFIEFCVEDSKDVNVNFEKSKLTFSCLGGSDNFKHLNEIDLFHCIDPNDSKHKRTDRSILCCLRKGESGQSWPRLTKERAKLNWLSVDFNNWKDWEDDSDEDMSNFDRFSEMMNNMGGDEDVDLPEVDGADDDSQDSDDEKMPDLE
UniProt Q15468: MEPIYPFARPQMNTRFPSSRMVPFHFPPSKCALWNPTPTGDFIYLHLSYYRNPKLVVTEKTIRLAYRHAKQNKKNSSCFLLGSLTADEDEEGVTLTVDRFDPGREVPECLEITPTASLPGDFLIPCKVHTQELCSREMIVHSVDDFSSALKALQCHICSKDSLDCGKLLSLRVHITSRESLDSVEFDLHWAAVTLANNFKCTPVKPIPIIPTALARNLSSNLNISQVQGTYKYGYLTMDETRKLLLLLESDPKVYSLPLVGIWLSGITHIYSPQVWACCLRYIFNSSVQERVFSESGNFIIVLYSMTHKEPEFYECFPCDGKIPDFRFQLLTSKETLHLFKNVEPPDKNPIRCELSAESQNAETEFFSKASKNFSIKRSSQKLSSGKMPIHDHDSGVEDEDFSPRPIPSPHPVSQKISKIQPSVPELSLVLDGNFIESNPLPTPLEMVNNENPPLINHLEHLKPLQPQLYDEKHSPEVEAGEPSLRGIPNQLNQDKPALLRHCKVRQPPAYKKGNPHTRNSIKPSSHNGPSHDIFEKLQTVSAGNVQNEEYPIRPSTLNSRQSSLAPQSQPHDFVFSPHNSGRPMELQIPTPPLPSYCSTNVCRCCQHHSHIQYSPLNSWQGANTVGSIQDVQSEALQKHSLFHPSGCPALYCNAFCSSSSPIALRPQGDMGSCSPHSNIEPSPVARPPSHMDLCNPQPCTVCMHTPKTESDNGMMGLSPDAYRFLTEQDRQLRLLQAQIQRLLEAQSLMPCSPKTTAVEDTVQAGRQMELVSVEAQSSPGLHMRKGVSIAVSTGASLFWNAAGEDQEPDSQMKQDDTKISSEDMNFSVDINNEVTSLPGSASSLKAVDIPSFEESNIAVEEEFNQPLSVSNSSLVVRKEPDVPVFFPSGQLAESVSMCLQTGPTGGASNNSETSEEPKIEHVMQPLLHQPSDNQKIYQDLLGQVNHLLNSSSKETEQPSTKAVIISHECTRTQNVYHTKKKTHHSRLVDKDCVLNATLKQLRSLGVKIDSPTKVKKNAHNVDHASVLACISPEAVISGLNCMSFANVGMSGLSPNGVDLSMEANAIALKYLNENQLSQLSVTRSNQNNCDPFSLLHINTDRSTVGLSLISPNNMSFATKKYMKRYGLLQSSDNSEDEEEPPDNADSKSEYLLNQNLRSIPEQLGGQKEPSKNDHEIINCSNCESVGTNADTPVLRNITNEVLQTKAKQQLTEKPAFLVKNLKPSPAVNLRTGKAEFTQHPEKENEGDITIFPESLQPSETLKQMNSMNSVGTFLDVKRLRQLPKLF
UniProt Q9UKL3: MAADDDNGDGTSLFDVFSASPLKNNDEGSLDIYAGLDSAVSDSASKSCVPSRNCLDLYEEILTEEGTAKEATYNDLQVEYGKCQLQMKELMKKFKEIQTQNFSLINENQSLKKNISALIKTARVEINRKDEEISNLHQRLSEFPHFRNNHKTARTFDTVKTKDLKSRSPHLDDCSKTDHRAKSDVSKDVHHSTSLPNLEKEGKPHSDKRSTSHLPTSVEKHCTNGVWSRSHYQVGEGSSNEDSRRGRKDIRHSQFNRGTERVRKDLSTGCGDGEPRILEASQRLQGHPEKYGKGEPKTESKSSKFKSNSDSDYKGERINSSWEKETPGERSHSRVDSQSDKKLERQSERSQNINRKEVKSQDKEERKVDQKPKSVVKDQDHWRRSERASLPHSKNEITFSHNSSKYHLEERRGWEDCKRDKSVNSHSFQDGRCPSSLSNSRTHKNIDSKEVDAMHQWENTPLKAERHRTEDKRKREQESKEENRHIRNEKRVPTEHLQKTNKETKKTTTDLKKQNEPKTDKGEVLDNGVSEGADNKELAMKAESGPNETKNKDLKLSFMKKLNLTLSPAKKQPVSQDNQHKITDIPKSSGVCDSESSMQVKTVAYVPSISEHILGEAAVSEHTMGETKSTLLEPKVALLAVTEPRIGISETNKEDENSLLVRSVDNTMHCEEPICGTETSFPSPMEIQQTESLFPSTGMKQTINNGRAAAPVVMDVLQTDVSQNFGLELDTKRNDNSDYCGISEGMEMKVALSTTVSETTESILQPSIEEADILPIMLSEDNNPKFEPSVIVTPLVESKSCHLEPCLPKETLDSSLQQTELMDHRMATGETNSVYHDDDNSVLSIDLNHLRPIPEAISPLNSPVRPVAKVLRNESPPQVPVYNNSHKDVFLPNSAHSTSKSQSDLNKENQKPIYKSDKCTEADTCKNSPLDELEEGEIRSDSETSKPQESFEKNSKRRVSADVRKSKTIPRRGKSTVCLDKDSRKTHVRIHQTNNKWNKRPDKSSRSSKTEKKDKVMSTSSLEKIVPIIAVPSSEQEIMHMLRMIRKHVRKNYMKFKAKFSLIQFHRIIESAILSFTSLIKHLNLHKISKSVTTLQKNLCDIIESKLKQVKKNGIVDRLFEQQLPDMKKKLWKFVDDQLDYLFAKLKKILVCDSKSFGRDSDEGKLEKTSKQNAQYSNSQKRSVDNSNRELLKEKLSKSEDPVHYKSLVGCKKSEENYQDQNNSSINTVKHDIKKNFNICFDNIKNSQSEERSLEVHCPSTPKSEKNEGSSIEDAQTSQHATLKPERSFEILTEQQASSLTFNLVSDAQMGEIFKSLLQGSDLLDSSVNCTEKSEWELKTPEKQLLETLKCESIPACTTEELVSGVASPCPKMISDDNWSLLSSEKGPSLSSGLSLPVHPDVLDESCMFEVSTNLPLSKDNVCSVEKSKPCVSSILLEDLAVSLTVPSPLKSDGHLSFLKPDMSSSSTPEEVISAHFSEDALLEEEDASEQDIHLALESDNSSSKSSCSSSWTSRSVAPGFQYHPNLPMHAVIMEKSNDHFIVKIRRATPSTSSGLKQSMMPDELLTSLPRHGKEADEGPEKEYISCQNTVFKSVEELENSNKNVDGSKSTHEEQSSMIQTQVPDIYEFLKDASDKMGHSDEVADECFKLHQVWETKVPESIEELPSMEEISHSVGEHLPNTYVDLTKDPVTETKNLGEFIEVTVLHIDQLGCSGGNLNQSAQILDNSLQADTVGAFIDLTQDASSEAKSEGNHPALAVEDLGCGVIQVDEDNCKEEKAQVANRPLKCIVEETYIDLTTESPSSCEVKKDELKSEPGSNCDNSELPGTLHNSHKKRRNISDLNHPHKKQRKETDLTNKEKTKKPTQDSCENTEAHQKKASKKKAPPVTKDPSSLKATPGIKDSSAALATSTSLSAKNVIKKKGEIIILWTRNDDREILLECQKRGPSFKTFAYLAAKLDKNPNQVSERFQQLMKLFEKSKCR
UniProt O95139, whole entry: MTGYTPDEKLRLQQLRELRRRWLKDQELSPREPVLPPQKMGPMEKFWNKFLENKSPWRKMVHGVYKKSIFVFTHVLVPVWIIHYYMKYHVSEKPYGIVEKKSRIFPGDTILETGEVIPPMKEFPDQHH
UniProt Q96RQ1: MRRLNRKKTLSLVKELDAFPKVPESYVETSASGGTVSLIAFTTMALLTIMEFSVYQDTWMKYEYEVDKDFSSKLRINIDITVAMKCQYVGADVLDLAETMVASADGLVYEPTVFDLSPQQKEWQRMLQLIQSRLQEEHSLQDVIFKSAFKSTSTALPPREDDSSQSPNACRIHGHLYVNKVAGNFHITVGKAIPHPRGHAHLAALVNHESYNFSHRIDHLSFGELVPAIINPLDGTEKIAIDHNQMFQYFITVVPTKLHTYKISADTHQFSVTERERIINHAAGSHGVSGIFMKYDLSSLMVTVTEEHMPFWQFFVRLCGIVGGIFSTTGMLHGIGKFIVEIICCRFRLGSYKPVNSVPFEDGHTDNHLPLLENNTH
UniProt P62333, whole entry: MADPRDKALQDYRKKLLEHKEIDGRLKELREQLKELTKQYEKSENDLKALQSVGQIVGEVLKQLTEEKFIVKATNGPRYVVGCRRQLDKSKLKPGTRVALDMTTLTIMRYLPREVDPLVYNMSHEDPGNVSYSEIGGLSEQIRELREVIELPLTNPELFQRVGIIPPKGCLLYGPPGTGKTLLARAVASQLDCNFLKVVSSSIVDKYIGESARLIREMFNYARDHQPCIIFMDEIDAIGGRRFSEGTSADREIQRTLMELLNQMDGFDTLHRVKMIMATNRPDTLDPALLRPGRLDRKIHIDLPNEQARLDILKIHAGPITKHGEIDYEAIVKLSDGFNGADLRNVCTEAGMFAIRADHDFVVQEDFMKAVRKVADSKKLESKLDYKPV
UniProt Q9NV06: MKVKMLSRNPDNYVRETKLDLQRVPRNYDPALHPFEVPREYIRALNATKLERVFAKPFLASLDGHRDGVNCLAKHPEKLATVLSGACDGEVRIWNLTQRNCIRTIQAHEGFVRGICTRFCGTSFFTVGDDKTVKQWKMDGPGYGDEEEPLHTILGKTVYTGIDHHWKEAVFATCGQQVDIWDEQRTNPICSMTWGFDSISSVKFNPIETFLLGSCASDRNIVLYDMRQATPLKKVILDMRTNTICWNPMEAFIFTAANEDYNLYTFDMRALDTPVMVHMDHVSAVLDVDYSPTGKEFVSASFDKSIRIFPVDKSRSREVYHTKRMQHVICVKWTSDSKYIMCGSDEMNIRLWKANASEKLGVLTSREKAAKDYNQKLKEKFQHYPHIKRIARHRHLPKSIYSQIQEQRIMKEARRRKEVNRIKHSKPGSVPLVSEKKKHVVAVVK
UniProt Q8N543: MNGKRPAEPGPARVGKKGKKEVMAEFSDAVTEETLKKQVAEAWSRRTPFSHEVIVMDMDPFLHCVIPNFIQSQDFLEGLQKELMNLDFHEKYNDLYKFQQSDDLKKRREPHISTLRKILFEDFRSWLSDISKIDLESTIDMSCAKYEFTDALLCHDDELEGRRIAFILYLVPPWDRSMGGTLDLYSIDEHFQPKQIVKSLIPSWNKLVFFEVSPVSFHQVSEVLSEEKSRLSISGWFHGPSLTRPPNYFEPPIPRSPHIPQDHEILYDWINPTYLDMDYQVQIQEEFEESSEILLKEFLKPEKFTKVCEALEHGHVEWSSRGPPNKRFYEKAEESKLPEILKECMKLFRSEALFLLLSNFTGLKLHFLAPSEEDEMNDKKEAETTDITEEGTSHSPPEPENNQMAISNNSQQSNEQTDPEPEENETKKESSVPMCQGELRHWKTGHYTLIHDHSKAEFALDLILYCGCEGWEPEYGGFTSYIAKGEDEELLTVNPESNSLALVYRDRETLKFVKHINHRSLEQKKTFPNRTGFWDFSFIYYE
UniProt O75448: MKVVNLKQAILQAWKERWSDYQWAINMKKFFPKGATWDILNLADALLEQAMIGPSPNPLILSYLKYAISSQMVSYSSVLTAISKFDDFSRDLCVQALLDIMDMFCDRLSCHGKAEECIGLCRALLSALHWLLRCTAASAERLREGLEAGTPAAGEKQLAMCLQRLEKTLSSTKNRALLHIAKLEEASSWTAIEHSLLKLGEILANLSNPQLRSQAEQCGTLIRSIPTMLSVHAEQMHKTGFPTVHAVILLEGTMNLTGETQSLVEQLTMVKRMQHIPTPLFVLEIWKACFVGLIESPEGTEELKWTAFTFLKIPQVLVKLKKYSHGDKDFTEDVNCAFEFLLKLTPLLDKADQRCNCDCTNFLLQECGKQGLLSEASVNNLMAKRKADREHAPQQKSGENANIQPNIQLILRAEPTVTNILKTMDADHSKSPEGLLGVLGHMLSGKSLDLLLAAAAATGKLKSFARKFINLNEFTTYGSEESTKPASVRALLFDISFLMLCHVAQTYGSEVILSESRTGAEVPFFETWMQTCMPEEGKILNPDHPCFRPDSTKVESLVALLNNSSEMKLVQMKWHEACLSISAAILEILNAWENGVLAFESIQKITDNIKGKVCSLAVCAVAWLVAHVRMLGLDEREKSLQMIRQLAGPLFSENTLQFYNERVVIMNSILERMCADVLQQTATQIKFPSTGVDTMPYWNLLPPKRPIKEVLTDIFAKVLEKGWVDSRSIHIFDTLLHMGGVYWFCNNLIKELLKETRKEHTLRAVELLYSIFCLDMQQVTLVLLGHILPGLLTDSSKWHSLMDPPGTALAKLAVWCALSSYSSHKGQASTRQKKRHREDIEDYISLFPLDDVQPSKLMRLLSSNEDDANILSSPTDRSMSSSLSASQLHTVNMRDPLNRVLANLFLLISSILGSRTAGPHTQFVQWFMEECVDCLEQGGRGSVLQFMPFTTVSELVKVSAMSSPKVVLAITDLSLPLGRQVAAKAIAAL

Target	NP40-soluble protein abundance (concentration: 1mM)	NP40-soluble protein abundance (concentration: 2mM)	NP40-soluble protein abundance (concentration: 4mM)	NP40-soluble protein abundance (concentration: 6mM)	NP40-soluble protein abundance (concentration: 8mM)	NP40-soluble protein abundance (concentration: 10mM)
A0A087WUH0|P28715 (UniProt P28715)	0.973 ± 0.043	0.974 ± 0.011	0.996 ± 0.027	1.02 ± 0.048	0.986 ± 0.024	0.992 ± 0.019
A0A087WYT3|Q15185 (UniProt Q15185)	0.9303 ± 0.0027	0.922 ± 0.033	0.886 ± 0.064	0.922 ± 0.02	0.862 ± 0.049	0.867 ± 0.059
A0A0A0MR87|E9PSF2 and related entries (UniProt Q15468)	0.885 ± 0.01	0.866 ± 0.098	0.916 ± 0.059	0.765 ± 0.1	0.865 ± 0.018	0.8448 ± 0.0015
A0A087WTW5|Q9UKL3 (UniProt Q9UKL3)	1.02 ± 0.03	1.04 ± 0.056	1.06 ± 0.08	1.14 ± 0.11	1.08 ± 0.055	1.12 ± 0.05
A0A087WZX2|O95139 (UniProt O95139)	0.905 ± 0.12	0.883 ± 0.097	0.885 ± 0.12	0.908 ± 0.17	0.931 ± 0.11	0.791 ± 0.19
A0A087WU02|F8VPA6 and related entries (UniProt Q96RQ1)	1.01 ± 0.1	1.03 ± 0.036	1.06 ± 0.15	0.962 ± 0.21	1.06 ± 0.088	0.9605 ± 0.0044
A0A0C4DFY0|Q14242 and related entries (UniProt Q14242)	0.833 ± 0.13	0.764 ± 0.1	0.894 ± 0.092	0.903 ± 0.096	0.843 ± 0.12	0.77 ± 0.072
A0A087X2I1|P62333 (UniProt P62333)	0.945 ± 0.077	0.883 ± 0.035	0.867 ± 0.041	0.84 ± 0.052	0.895 ± 0.038	0.855 ± 0.031
A0A087WT20|Q9NV06 (UniProt Q9NV06)	1.05 ± 0.061	1.04 ± 0.12	1.04 ± 0.13	0.993 ± 0.086	1 ± 0.1	1.05 ± 0.045
A0A0A0MTR2|Q8N543 (UniProt Q8N543)	1.02 ± 0.09	0.991 ± 0.084	0.982 ± 0.083	0.971 ± 0.11	1.01 ± 0.051	0.972 ± 0.084
A0A087WU62|A0A087X2D5|A0A0G2JMS5|Q9BRJ2 (UniProt Q9BRJ2)	1.08 ± 0.091	0.961 ± 0.086	0.977 ± 0.089	0.995 ± 0.19	1.03 ± 0.17	0.969 ± 0.12
A0A0B4J1W0|F5GY88 and related entries (UniProt O75448)	1.08 ± 0.025	1.027 ± 0.0038	1.01 ± 0.019	0.993 ± 0.092	1.09 ± 0.067	1.04 ± 0.074
